Data as given in PMC8033486 (Frontiers in Pharmacology, 2021).
Where two headings read alike, the source gives them in different places.

System: SARS-CoV-2
Type: cell-based

SMILES	IC50 (Mean +/- SD)	IC50 (Mean +/- SD) (Vero E6, cytopathic effect 3 days after infection, repeated experiments)
COc1cc2c(c(OC)c1OC)-c1ccc(OC)c(=O)cc1[C@@H](NC(C)=O)CC2 [Colchicine]	Not Active	
C[C@@H]1CCN(C(=O)CC#N)C[C@@H]1N(C)c1ncnc2[nH]ccc12 [Tofacitinib]		Not Active
